{"source": "PubChem BioAssay AID743121 (NCATS, 2013)", "aim": "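Partners whose loss is lethal together with topoisomerase I blockade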 (primary screen)", "system": "MDA-MB-231 cells, a human breast cancer line", "reagent": "single siRNA against human genes, 20 nM siRNA (0.8 pmol per well)", "duration": "120 h (drug added 48 h after transfection, read 72 h later)", "conditions": "camptothecin 20 nM (about EC30) for 72 h; vehicle 0.1% DMSO in parallel plates", "read-out": "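CellTiter-Glo ATP signal, scaled to control siRNA as percent viability; sensitisation given as log2 of untreated divided by camptothecin-treated viability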", "direction": "log2 vehicle/camptothecin viability: higher = stronger sensitisation to camptothecin; viability with camptothecin: higher = more viable cells", "hit rule": "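Each gene scored by redundant siRNA activity (RSA) over its individual siRNA ratios; a gene is called active at p < 0.001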", "note": "Here is an unselected part of about 26,000 deposited reagents. 167 of them (0.63%) were called active. 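Calls are per gene from RSA p-values that are not deposited; an individual active-marked siRNA can sensitise only weakly.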 Unmarked entries are inactive. Not all columns of the deposit are shown."}
{"gene": "GFRA3", "PubChem SID": "SID164366435", "log2 vehicle/camptothecin viability": -0.397, "viability with camptothecin (% of control)": 75.6}
{"gene": "GFRA3", "PubChem SID": "SID164366437", "log2 vehicle/camptothecin viability": -0.16, "viability with camptothecin (% of control)": 55.9}
{"gene": "GFRA3", "PubChem SID": "SID164366439", "log2 vehicle/camptothecin viability": 0.19, "viability with camptothecin (% of control)": 86.4}
{"gene": "SMURF2", "PubChem SID": "SID164503817", "log2 vehicle/camptothecin viability": -0.418, "viability with camptothecin (% of control)": 90.3}
{"gene": "SMURF2", "PubChem SID": "SID164503818", "log2 vehicle/camptothecin viability": -0.449, "viability with camptothecin (% of control)": 82.5}
{"gene": "SMURF2", "PubChem SID": "SID164503820", "log2 vehicle/camptothecin viability": 0.0471, "viability with camptothecin (% of control)": 111}
{"gene": "SMURF2", "PubChem SID": "SID164503821", "log2 vehicle/camptothecin viability": 0.0336, "viability with camptothecin (% of control)": 92.3}
{"gene": "SNX6", "PubChem SID": "SID164497318", "log2 vehicle/camptothecin viability": 0.318, "viability with camptothecin (% of control)": 84.7}
{"gene": "SNX6", "PubChem SID": "SID164497322", "log2 vehicle/camptothecin viability": -0.473, "viability with camptothecin (% of control)": 69.8}
{"gene": "SNX6", "PubChem SID": "SID164497324", "log2 vehicle/camptothecin viability": 0.0405, "viability with camptothecin (% of control)": 124}
{"gene": "SNX6", "PubChem SID": "SID164497326", "log2 vehicle/camptothecin viability": -0.375, "viability with camptothecin (% of control)": 77.9}
{"gene": "REEP4", "PubChem SID": "SID164536260", "log2 vehicle/camptothecin viability": -0.398, "viability with camptothecin (% of control)": 100}
{"gene": "REEP4", "PubChem SID": "SID164536262", "log2 vehicle/camptothecin viability": -0.288, "viability with camptothecin (% of control)": 108}
{"gene": "REEP4", "PubChem SID": "SID164536263", "log2 vehicle/camptothecin viability": -0.176, "viability with camptothecin (% of control)": 78.5}
{"gene": "REEP4", "PubChem SID": "SID164536265", "log2 vehicle/camptothecin viability": -0.388, "viability with camptothecin (% of control)": 75.3}
{"gene": "NEFH", "PubChem SID": "SID164377605", "log2 vehicle/camptothecin viability": -0.303, "viability with camptothecin (% of control)": 22.8}
{"gene": "NEFH", "PubChem SID": "SID164377609", "log2 vehicle/camptothecin viability": -0.0962, "viability with camptothecin (% of control)": 88.2}
{"gene": "NEFH", "PubChem SID": "SID164377610", "log2 vehicle/camptothecin viability": -0.249, "viability with camptothecin (% of control)": 76.3}
{"gene": "NEFH", "PubChem SID": "SID164377612", "log2 vehicle/camptothecin viability": -0.535, "viability with camptothecin (% of control)": 43.3}
{"gene": "IRF4", "PubChem SID": "SID164371830", "log2 vehicle/camptothecin viability": 0.0907, "viability with camptothecin (% of control)": 74.5}
{"gene": "IRF4", "PubChem SID": "SID164371834", "log2 vehicle/camptothecin viability": 0.116, "viability with camptothecin (% of control)": 104}
{"gene": "IRF4", "PubChem SID": "SID164371835", "log2 vehicle/camptothecin viability": 0.583, "viability with camptothecin (% of control)": 11.4}
{"gene": "IRF4", "PubChem SID": "SID174316031", "log2 vehicle/camptothecin viability": 0.0388, "viability with camptothecin (% of control)": 93.5}
{"gene": "AZIN2", "PubChem SID": "SID164559861", "log2 vehicle/camptothecin viability": 0.195, "viability with camptothecin (% of control)": 67.6}
{"gene": "AZIN2", "PubChem SID": "SID164559863", "log2 vehicle/camptothecin viability": -0.189, "viability with camptothecin (% of control)": 122}
{"gene": "AZIN2", "PubChem SID": "SID164559864", "log2 vehicle/camptothecin viability": 0.303, "viability with camptothecin (% of control)": 62.8}
{"gene": "AZIN2", "PubChem SID": "SID164559867", "log2 vehicle/camptothecin viability": -0.511, "viability with camptothecin (% of control)": 65.5}
{"gene": "SLC52A1", "PubChem SID": "SID164482493", "log2 vehicle/camptothecin viability": 1.84, "viability with camptothecin (% of control)": 21.2}
{"gene": "SLC52A1", "PubChem SID": "SID164482494", "log2 vehicle/camptothecin viability": -0.0579, "viability with camptothecin (% of control)": 76.5}
{"gene": "SLC52A1", "PubChem SID": "SID164482495", "log2 vehicle/camptothecin viability": -0.286, "viability with camptothecin (% of control)": 102}
{"gene": "SLC52A1", "PubChem SID": "SID164482497", "log2 vehicle/camptothecin viability": -0.371, "viability with camptothecin (% of control)": 92.9}
{"gene": "PRKCSH", "PubChem SID": "SID164382662", "log2 vehicle/camptothecin viability": 0.0125, "viability with camptothecin (% of control)": 105}
{"gene": "PRKCSH", "PubChem SID": "SID164382664", "log2 vehicle/camptothecin viability": -0.343, "viability with camptothecin (% of control)": 103}
{"gene": "PRKCSH", "PubChem SID": "SID164382666", "log2 vehicle/camptothecin viability": -0.334, "viability with camptothecin (% of control)": 96.7}
{"gene": "PRKCSH", "PubChem SID": "SID164382667", "log2 vehicle/camptothecin viability": 0.302, "viability with camptothecin (% of control)": 10.2}
{"gene": "CYSLTR1", "PubChem SID": "SID164413524", "log2 vehicle/camptothecin viability": 0.0599, "viability with camptothecin (% of control)": 90.4}
{"gene": "CYSLTR1", "PubChem SID": "SID164413526", "log2 vehicle/camptothecin viability": -0.289, "viability with camptothecin (% of control)": 135}
{"gene": "CYSLTR1", "PubChem SID": "SID164413530", "log2 vehicle/camptothecin viability": -0.286, "viability with camptothecin (% of control)": 85.8}
{"gene": "CYSLTR1", "PubChem SID": "SID164413531", "log2 vehicle/camptothecin viability": -0.172, "viability with camptothecin (% of control)": 88.7}
{"gene": "LMO2", "PubChem SID": "SID164374012", "log2 vehicle/camptothecin viability": -0.309, "viability with camptothecin (% of control)": 61.4}
{"gene": "LMO2", "PubChem SID": "SID164374013", "log2 vehicle/camptothecin viability": 0.298, "viability with camptothecin (% of control)": 46}
{"gene": "LMO2", "PubChem SID": "SID164374014", "log2 vehicle/camptothecin viability": -0.166, "viability with camptothecin (% of control)": 99.8}
{"gene": "LMO2", "PubChem SID": "SID164374016", "log2 vehicle/camptothecin viability": -0.284, "viability with camptothecin (% of control)": 96.2}
{"gene": "TRMT2A", "PubChem SID": "SID164462067", "log2 vehicle/camptothecin viability": -0.0411, "viability with camptothecin (% of control)": 90.8}
{"gene": "TRMT2A", "PubChem SID": "SID164462069", "log2 vehicle/camptothecin viability": -0.166, "viability with camptothecin (% of control)": 85.2}
{"gene": "TRMT2A", "PubChem SID": "SID164462070", "log2 vehicle/camptothecin viability": -0.133, "viability with camptothecin (% of control)": 84.3}
{"gene": "TRMT2A", "PubChem SID": "SID164462072", "log2 vehicle/camptothecin viability": -0.166, "viability with camptothecin (% of control)": 97.8}
